Laboratory results reported in the supplement of paper PMC11732987, “Enantioselective OTUD7B fragment discovery through chemoproteomics screening and high-throughput optimisation” (Communications Chemistry, 2025).
This is one part of the list. The data scatter; read single values as rough.

Amino acid sequences for entries named in this document (tags omitted). A change or cut given only in a name is not applied to a line headed by its entry.
UniProt Q8NC60: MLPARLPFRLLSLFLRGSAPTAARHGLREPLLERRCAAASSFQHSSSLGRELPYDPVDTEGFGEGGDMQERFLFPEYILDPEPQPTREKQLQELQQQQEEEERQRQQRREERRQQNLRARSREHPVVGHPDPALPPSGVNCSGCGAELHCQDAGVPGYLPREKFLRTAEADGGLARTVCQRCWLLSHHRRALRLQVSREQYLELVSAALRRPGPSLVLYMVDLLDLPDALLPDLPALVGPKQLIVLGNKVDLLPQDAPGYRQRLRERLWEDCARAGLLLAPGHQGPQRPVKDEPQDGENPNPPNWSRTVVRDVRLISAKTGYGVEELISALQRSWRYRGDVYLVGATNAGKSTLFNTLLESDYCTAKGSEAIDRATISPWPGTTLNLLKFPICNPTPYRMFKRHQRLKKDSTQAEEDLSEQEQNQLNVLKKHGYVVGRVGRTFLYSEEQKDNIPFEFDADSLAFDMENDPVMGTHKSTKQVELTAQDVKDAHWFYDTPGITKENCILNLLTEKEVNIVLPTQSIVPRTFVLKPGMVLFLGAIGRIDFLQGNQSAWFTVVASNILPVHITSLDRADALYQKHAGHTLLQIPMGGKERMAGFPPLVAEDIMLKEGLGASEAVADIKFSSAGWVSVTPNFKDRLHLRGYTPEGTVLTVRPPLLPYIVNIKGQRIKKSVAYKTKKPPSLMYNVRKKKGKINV
UniProt P28331, whole entry, looked up: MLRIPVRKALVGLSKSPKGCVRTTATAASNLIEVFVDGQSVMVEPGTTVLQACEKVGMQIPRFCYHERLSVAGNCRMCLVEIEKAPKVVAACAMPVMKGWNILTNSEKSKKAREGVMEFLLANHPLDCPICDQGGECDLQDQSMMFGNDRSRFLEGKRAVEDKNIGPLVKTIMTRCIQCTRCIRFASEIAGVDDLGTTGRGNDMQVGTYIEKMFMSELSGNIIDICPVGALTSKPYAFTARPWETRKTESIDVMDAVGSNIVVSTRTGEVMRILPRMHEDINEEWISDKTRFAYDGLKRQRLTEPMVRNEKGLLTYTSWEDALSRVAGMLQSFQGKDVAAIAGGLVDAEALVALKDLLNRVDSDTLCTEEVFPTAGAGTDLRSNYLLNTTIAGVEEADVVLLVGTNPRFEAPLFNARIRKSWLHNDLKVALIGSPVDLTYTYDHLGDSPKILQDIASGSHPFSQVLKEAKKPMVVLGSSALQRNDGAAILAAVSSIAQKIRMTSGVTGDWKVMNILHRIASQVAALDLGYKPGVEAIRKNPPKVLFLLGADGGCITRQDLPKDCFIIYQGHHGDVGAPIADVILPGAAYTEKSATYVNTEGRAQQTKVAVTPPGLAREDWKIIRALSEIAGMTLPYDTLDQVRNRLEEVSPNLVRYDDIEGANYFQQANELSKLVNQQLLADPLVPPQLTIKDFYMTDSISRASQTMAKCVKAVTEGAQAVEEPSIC
UniProt Q96IV0: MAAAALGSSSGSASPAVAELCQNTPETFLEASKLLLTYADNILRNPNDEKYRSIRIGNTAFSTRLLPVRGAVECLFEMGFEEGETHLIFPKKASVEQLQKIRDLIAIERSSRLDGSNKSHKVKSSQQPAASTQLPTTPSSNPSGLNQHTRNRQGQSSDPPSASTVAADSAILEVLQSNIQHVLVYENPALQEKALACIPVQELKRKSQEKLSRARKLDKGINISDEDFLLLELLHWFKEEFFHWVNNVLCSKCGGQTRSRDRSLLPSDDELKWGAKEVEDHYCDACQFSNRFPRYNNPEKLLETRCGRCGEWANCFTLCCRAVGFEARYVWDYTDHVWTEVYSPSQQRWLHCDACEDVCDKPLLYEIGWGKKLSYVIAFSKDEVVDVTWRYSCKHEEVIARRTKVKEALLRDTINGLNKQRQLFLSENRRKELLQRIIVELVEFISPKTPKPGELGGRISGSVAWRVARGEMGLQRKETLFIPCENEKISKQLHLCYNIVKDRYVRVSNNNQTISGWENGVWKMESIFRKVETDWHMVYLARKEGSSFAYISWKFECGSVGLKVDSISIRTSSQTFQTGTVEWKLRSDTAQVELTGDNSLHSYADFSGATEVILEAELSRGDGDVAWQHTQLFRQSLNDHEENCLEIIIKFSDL
UniProt Q5SYE7: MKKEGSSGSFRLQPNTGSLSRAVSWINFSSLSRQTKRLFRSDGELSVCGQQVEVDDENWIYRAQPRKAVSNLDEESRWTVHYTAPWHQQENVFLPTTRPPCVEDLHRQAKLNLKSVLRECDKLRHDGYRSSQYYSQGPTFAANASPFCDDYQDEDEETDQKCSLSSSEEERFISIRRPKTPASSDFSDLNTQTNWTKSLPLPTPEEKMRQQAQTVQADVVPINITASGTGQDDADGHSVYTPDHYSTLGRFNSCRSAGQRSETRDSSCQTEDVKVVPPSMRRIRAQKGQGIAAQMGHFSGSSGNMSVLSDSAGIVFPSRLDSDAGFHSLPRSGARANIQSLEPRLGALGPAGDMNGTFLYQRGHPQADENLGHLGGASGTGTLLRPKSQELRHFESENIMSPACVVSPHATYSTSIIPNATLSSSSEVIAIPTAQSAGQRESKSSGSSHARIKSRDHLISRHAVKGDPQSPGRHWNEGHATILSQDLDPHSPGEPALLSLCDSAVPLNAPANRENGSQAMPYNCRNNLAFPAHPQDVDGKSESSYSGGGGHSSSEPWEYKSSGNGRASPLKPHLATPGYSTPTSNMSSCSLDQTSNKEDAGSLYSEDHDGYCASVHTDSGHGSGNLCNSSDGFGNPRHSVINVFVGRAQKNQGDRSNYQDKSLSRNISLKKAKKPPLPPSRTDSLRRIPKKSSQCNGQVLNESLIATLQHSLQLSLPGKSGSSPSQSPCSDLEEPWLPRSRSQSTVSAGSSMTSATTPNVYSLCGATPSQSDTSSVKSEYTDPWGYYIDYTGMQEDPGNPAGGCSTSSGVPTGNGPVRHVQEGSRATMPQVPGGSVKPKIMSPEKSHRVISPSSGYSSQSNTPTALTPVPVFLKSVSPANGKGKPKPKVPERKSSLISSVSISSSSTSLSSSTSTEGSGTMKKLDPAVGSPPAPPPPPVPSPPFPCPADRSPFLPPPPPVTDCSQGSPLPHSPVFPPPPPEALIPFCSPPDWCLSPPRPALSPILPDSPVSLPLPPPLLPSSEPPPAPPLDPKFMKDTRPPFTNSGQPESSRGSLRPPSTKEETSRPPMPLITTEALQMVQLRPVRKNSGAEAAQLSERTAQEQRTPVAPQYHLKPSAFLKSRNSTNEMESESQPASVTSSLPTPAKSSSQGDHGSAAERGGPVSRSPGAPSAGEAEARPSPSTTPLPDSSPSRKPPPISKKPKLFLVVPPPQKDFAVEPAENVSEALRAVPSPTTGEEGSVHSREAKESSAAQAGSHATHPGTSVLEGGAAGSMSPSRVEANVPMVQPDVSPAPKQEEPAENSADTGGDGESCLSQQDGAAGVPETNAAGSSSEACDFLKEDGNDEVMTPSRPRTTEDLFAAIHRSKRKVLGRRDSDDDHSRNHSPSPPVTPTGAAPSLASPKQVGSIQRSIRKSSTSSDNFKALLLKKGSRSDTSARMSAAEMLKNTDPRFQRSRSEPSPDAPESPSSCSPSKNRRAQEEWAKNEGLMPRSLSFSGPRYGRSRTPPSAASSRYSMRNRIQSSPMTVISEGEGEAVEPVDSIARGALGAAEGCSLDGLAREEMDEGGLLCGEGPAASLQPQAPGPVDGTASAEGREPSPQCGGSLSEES
UniProt P21359: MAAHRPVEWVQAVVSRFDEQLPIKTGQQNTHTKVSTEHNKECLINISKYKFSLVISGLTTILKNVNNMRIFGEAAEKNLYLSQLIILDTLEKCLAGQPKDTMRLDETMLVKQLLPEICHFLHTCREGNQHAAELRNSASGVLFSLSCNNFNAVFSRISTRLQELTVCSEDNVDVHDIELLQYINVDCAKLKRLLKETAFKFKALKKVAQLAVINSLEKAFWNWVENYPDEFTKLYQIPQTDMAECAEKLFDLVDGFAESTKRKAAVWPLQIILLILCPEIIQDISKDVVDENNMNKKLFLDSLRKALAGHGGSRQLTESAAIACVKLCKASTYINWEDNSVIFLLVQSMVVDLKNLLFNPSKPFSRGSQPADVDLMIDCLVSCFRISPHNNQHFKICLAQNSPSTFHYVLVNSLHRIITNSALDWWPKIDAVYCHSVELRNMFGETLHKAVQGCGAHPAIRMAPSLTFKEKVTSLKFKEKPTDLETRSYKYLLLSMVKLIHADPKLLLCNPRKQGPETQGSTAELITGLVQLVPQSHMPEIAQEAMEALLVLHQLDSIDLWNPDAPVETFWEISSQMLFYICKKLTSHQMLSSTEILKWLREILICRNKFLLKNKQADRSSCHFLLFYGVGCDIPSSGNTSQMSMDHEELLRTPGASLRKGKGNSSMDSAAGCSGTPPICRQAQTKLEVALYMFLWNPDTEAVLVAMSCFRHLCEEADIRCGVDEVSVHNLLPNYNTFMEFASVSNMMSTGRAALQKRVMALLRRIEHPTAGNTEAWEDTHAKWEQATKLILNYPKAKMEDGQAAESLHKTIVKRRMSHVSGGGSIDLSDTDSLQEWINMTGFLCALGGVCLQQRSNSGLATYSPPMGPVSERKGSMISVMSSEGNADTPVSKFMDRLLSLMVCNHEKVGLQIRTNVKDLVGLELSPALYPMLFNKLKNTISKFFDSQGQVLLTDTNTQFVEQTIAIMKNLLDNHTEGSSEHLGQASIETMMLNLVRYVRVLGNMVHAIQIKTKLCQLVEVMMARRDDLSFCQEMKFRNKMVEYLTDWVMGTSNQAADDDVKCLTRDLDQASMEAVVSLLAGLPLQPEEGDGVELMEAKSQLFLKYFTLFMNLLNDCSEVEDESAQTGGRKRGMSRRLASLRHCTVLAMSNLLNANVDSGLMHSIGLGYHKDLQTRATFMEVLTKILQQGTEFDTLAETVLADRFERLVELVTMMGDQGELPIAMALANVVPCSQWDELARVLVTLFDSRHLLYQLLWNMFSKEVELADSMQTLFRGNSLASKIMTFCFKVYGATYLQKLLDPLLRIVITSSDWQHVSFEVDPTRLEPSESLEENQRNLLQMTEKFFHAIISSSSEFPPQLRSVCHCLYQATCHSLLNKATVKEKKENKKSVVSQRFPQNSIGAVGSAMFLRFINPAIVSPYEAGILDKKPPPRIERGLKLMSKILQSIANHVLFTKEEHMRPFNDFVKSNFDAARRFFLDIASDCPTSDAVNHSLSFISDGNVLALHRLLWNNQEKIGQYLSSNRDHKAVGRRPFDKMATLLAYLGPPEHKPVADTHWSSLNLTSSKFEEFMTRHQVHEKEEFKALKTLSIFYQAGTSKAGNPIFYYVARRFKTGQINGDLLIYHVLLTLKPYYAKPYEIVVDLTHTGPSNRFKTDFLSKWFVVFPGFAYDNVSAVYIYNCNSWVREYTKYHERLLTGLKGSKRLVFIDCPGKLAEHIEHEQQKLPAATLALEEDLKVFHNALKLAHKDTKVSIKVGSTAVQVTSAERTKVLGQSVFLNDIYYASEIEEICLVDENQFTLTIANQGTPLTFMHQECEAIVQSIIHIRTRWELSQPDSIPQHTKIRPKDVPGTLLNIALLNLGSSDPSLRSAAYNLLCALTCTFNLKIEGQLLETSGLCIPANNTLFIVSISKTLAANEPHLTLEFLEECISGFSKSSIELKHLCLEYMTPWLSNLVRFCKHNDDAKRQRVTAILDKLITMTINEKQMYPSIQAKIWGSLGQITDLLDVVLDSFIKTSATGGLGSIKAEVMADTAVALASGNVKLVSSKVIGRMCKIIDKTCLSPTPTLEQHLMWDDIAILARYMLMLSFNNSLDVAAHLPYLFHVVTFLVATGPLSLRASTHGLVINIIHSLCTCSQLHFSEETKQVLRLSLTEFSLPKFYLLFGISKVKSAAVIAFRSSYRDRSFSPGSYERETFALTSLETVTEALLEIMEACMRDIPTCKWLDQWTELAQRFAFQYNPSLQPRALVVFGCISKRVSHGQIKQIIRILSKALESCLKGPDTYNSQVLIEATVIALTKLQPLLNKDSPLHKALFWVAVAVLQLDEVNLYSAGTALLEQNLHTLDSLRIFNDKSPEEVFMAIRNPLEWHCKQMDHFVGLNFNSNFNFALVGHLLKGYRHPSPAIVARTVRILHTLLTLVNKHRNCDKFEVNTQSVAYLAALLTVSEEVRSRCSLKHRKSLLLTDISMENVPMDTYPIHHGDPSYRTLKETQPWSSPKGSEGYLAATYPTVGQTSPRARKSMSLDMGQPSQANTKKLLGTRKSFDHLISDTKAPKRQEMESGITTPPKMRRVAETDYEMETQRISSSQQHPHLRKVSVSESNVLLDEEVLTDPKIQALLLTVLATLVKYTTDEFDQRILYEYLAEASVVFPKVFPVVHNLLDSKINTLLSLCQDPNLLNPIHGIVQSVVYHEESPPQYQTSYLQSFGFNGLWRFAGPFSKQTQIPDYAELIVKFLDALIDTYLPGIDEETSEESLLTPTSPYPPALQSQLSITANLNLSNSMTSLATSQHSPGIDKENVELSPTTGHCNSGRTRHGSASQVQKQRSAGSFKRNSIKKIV

compound: ClCC(=O)N[C@@H]1CCCc2ccccc12; experiment: log2 mean competition ratio of IA-DTB cysteine labelling (DMSO/compound) (log2 ratio); higher = stronger cysteine engagement by compound; conditions: 50 µM; treatment time: 4 h; cell line lysate: HEK293T
Method: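 IA-DTB competitive cysteine chemoproteomics in HEK293T RIPA lysate. Lysates were treated with compound 29 or 30 at 50 or 200 µM for 4 h, then IA-DTB (500 µM, 1 h), trypsin-digested, NeutrAvidin-enriched and analysed by diaPASEF. Competition ratio = intensity DMSO / intensity compound (n=4 treated, n=64 DMSO); binding: mean log2 CR ≥ 1 and p ≤ 0.05 plus QC filters. Target is the cysteine site.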

Target | log2 mean competition ratio
NFXL1 C775 (UniProt Q6ZNB6) | -0.000288
NOA1 C364 (UniProt Q8NC60) | 0.379
NELFA C471 (UniProt Q9H3P2) | -0.157
NCOA7 C439 (UniProt Q8NI08) | -0.48
NCOA3 C716 (UniProt Q9Y6Q9) | -0.112
NET1 C556 (UniProt Q7Z628) | 0.448
NCOA4 C184 (UniProt Q13772) | -0.0721
NFRKB C29 (UniProt Q6P4R8) | -0.158
NDUFS1 C75 (UniProt P28331) | -0.0611
NOM1 C332 (UniProt Q5C9Z4) | -0.0791
NEK9 C506 (UniProt Q8TD19) | -0.0184
NGLY1 C484 (UniProt Q96IV0) | -0.0367
NDC80 C449 (UniProt O14777) | 0.377
NCK1 C139 (UniProt P16333) | -0.0115
NBEA C2007 (UniProt Q8NFP9) | 0.206
NMD3 C55 (UniProt Q96D46) | 0.122
NEK4 C724 (UniProt P51957) | -0.273
NHSL1 C268 (UniProt Q5SYE7) | -0.0707
NNT C1073 (UniProt Q13423) | -0.122
NF1 C2808 (UniProt P21359) | 0.0521

same assay, conditions: 200 µM; treatment time: 4 h; cell line lysate: HEK293T

Target | log2 mean competition ratio
NFXL1 C775 (UniProt Q6ZNB6) | -0.12
NOA1 C364 (UniProt Q8NC60) | -0.0106
NELFA C471 (UniProt Q9H3P2) | -0.0873
NCOA7 C439 (UniProt Q8NI08) | 0.218
NCOA3 C716 (UniProt Q9Y6Q9) | -0.535
NET1 C556 (UniProt Q7Z628) | 0.0191
NCOA4 C184 (UniProt Q13772) | -0.0991
NFRKB C29 (UniProt Q6P4R8) | 0.293
NDUFS1 C75 (UniProt P28331) | 0.00848
NOM1 C332 (UniProt Q5C9Z4) | -0.0595
NEK9 C506 (UniProt Q8TD19) | 0.031
NGLY1 C484 (UniProt Q96IV0) | -0.123
NDC80 C449 (UniProt O14777) | 0.0558
NCK1 C139 (UniProt P16333) | -0.0445
NBEA C2007 (UniProt Q8NFP9) | 0.0259
NMD3 C55 (UniProt Q96D46) | 0.244
NEK4 C724 (UniProt P51957) | -0.018
NHSL1 C268 (UniProt Q5SYE7) | 0.56
NNT C1073 (UniProt Q13423) | -0.215
NF1 C2808 (UniProt P21359) | -0.286
